According to the supplement of paper PMC10849652:
The list shows a part of the results. Residues, ends and D or L forms follow the SMILES beside them. *: point of attachment. Cbz = O=C(OCc1ccccc1)*

By UniProt entry, the sequences of proteins in these tests, tags left out. Where a name states a change or a piece, a line headed by the entry shows the natural chain unless it says otherwise.
UniProt Q9Y446: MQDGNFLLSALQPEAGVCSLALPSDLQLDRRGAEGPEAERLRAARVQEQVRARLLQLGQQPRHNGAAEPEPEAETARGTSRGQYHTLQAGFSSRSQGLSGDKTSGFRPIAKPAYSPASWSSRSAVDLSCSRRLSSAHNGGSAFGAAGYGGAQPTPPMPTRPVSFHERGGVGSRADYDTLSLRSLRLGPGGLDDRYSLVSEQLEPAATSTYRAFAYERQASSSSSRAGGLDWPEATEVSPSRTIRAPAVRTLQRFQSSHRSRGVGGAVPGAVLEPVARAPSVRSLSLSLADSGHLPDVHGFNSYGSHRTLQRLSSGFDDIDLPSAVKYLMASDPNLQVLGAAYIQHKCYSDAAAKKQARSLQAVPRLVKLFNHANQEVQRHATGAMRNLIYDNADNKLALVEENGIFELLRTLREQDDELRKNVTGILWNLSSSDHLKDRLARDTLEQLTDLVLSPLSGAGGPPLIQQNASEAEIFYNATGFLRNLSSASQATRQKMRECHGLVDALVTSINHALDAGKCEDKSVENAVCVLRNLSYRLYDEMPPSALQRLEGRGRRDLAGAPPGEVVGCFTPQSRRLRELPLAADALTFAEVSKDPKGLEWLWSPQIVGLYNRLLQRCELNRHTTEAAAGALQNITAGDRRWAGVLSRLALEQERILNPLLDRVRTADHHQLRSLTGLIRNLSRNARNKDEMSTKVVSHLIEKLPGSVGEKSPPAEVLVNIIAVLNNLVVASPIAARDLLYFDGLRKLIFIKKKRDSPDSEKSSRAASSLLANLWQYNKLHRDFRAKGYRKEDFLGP
UniProt Q9NXJ5: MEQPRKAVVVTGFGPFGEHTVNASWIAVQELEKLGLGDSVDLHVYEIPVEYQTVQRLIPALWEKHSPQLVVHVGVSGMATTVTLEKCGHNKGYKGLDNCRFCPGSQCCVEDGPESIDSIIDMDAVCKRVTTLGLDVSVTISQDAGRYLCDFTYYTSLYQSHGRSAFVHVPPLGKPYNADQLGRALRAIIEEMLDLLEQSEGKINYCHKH
UniProt Q8N2W9: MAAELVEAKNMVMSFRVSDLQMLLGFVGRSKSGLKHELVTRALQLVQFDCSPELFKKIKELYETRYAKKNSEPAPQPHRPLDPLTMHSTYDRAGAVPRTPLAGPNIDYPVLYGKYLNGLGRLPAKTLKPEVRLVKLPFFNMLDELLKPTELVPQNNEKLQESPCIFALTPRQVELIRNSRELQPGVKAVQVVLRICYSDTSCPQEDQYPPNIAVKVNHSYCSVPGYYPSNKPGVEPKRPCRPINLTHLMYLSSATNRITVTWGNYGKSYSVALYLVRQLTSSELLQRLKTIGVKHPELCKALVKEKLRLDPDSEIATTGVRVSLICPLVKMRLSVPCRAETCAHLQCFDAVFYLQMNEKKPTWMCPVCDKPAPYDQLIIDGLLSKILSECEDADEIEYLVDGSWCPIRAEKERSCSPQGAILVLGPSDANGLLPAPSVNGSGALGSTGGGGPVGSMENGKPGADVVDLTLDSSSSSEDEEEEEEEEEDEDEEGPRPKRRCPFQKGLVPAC
UniProt P07205: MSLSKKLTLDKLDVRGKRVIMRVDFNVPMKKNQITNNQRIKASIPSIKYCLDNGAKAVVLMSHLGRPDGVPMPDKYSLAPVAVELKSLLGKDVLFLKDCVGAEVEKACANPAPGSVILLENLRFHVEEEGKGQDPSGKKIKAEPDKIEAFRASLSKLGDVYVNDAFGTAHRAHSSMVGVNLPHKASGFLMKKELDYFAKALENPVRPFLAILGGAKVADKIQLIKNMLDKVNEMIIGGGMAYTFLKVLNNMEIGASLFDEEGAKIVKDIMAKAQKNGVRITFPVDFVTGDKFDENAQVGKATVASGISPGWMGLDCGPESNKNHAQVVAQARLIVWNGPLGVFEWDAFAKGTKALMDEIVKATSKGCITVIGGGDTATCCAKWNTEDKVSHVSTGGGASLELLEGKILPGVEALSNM
UniProt Q7Z412: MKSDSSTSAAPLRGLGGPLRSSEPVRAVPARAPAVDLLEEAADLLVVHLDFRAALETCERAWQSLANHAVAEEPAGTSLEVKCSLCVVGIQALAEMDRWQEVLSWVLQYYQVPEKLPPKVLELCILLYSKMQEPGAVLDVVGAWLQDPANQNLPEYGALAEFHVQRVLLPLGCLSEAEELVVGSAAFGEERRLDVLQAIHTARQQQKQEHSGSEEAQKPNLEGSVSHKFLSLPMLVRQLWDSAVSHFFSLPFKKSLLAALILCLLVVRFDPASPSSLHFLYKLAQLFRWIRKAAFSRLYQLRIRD
UniProt Q8IXK0: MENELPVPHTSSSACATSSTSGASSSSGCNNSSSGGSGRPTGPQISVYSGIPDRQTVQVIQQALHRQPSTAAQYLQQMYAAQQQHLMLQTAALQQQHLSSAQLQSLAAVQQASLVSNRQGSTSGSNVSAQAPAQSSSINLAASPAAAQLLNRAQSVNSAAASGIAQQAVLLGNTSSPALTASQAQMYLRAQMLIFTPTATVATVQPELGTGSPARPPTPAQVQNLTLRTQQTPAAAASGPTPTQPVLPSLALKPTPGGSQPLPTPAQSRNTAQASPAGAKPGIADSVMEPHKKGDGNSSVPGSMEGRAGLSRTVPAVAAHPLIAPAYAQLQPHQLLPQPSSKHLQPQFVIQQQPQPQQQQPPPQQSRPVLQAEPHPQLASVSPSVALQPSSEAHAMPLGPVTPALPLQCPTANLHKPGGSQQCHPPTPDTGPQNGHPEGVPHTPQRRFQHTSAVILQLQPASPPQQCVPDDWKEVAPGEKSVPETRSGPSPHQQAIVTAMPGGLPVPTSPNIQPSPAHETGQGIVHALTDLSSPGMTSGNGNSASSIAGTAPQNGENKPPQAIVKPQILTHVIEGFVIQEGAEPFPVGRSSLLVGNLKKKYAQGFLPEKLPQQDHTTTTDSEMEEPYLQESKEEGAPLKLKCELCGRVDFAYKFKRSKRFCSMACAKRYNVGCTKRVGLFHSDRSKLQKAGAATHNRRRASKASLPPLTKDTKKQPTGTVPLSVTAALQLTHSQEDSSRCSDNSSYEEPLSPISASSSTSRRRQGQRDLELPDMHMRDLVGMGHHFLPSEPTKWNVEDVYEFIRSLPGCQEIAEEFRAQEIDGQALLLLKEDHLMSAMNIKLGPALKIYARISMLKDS
UniProt O00443: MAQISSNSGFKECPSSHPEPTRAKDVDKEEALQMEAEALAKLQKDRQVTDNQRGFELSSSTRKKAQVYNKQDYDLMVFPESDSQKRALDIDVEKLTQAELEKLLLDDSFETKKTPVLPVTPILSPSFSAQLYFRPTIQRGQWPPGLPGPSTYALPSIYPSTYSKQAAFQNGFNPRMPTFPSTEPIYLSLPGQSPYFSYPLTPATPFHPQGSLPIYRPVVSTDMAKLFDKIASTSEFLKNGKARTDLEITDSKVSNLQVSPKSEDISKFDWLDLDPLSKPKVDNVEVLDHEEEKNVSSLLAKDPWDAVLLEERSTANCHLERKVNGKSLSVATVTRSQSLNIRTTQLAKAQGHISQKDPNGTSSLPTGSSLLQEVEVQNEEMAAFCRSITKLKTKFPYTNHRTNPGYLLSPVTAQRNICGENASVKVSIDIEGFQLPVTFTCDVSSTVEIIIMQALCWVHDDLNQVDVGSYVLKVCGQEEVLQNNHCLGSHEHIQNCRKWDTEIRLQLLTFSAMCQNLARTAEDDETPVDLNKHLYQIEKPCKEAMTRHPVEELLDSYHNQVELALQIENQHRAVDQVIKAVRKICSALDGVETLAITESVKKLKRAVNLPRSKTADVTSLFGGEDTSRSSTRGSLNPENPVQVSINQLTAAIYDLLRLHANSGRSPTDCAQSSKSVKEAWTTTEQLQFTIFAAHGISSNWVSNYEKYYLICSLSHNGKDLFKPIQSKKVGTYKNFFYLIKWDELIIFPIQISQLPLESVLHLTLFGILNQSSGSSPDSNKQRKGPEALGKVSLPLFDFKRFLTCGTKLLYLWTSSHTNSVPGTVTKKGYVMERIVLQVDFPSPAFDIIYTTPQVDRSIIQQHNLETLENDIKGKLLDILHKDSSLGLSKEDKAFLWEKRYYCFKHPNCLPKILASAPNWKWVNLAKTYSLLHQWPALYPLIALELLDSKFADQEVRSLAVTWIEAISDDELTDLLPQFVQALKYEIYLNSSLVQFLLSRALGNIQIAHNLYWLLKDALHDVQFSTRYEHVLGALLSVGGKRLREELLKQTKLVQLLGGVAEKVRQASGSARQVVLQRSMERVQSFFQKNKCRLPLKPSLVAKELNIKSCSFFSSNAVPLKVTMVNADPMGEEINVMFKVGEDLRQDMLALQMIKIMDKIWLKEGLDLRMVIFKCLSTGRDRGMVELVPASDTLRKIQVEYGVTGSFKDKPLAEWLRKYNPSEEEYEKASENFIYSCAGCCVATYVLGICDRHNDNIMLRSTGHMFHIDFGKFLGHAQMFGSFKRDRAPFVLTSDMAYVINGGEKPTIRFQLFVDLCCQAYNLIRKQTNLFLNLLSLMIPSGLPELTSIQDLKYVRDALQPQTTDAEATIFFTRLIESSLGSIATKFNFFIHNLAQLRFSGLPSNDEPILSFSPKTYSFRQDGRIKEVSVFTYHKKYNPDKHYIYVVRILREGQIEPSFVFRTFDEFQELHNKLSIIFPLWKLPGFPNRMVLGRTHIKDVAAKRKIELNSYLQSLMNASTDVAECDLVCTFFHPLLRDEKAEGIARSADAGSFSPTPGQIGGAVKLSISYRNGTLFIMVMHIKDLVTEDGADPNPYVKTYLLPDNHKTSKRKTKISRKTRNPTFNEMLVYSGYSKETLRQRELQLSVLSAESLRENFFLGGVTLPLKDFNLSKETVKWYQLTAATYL
UniProt O95427: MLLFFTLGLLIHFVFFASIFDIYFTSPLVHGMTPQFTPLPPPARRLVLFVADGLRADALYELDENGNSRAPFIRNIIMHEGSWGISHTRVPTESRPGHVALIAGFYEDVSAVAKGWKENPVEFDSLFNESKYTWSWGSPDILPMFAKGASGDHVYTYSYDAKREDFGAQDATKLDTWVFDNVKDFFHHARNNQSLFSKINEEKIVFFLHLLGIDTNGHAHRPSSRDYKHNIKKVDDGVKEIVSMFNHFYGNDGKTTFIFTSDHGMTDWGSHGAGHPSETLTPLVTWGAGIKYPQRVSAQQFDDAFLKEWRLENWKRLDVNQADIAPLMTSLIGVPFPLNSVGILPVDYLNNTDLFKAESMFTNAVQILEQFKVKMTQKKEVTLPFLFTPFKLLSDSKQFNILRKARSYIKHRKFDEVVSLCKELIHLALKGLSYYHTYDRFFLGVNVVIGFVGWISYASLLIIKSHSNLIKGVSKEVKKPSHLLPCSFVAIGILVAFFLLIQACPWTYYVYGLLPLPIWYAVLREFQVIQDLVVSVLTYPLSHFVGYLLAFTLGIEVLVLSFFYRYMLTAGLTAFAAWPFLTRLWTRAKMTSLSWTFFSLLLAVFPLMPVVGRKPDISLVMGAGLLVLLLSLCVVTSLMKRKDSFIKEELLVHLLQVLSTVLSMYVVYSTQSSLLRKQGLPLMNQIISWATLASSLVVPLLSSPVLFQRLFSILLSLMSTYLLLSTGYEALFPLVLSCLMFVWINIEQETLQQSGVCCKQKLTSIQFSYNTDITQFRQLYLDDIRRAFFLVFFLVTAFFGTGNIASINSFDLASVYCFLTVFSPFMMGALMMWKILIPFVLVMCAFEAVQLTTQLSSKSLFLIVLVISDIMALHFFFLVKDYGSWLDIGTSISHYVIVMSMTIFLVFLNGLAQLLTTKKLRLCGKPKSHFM

Columns and labels:
Assay in all cases: log2 fold change, soluble protein after heating vs DMSO (PISA); higher = thermal stabilisation; K562 cells, 10 uM, 30 min; active = over 0.2 and 3.5 SD of the protein, either way, in both replicates (recomputed)
IRAK-1-4 Inhibitor I = compound: C1COCCN1CCN2C3=CC=CC=C3N=C2NC(=O)C4=CC(=CC=C4)[N+](=O)[O-] [IRAK-1-4 Inhibitor I]
How it was run: (§1)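 K562 cells at 2×10^6 cells/mL were treated for 30 min with 10 μM compound, and aliquots were heated for 3 min over 48°C-58°C before pooling. Extraction used PBS with 0.5% NP-40 at 4°C, and soluble protein was the supernatant after 21,000xg for 90 min, measured by TMTpro 16plex LC-MS/MS with channel sums equalised. Thermal stability values, relative to control samples and from duplicates, are log2 fold changes.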

ibrutinib = compound: C=CC(=O)N1CCC[C@@H](n2nc(-c3ccc(Oc4ccccc4)cc3)c3c(N)ncnc32)C1 [ibrutinib]
How it was run: as §1

[1] = compound: CC(=O)c1cnc2ccc(-c3cc(Cl)c(O)c(Cl)c3)nc2c1N[C@H]1CC[C@H](CN(C)C)CC1
How it was run: as §1

ralimetinib = compound: CC(C)(C)Cn1c(N)nc2ccc(-c3[nH]c(C(C)(C)C)nc3-c3ccc(F)cc3)nc21 [ralimetinib]
How it was run: as §1

[2] = compound: CC(C)(O)CC(=O)NCCn1ccc2ncnc(Nc3ccc(Oc4cccc(C(F)(F)F)c4)c(Cl)c3)c21
How it was run: as §1

[3] = compound: CC(C)C[C@@H](C=O)NC(=O)[C@H](CC(C)C)NC(=O)[C@H](CC(C)C)NC(=O)OCc1ccccc1
How it was run: as §1

pinometostat = compound: CC(C)N(C[C@H]1O[C@@H](n2cnc3c(N)ncnc32)[C@H](O)[C@@H]1O)[C@H]1C[C@@H](CCc2nc3cc(C(C)(C)C)ccc3[nH]2)C1 [pinometostat]
How it was run: as §1

[4] = compound: CC1=C(C2=C(C=C1)C(=O)C3=CC=CC=C3N2CCCN)C
How it was run: as §1

[5] = compound: CC1=C(C=C(C=C1)NC(=O)C2=CC(=CC=C2)C(C)(C)C#N)NC3=CC4=C(C=C3)N=CN(C4=O)C
How it was run: as §1

[6] = compound: CC1=C(C=C(C=C1)NC(=O)C2=CC(=CC=C2)N(C)C)NC(=O)C3=CC=C(C=C3)O
How it was run: as §1

[7] = compound: CC1=CC=C(C=C1)SC2=C3C=C(SC3=CN=C2)C(=O)N
How it was run: as §1

[8] = compound: CC1=NC(=CC=C1)C2=C(N=C(N2)C(C)(C)C)C3=CC4=NC=CN=C4C=C3
How it was run: as §1

Nexturastat A = compound: CCCCN(Cc1ccc(C(=O)NO)cc1)C(=O)Nc1ccccc1 [Nexturastat A]
How it was run: as §1

vemurafenib = compound: CCCS(=O)(=O)Nc1ccc(F)c(C(=O)c2c[nH]c3ncc(-c4ccc(Cl)cc4)cc23)c1F [vemurafenib]
How it was run: as §1

[9] = compound: CCCS(=O)(=O)Nc1ccc(F)c(C(=O)c2c[nH]c3ncc(Cl)cc23)c1F
How it was run: as §1

[10] = compound: CCCc1cc(C)[nH]c(=O)c1CNC(=O)c1cc(-c2ccnc(N3CCN(C)CC3)c2)cc2c1cnn2C(C)C
How it was run: as §1

barasertib = compound: CCN(CCCOc1ccc2c(Nc3cc(CC(=O)Nc4cccc(F)c4)[nH]n3)ncnc2c1)CCOP(=O)(O)O [barasertib]
How it was run: as §1

[11] = compound: CC(C)C1=C2N=C(C=C(N2N=C1)NCC3=CC=CC=C3)NCCCCCCN
How it was run: as §1

givinostat = compound: CCN(CC)Cc1ccc2cc(COC(=O)Nc3ccc(C(=O)NO)cc3)ccc2c1 [givinostat]
How it was run: as §1

[12] = compound: CC1=C(C(CC(=O)N1)C2=CC=C(C=C2)C(F)(F)F)C(=O)NC3=C(C=C4C(=C3)C=NN4)F
How it was run: as §1

Measured: log2 fold change

PKP3 isoform 2 (UniProt Q9Y446)
inactive: IRAK-1-4 Inhibitor I -0.059 | ibrutinib -0.006 | [1] -0.33 | ralimetinib 0.09 | [2] 0.016 | [3] 0.1 | pinometostat 0.213 | [4] 0.32 | [5] -0.026 | [6] -0.031 | [7] 0.045 | [8] -0.057 | Nexturastat A 0.489 | vemurafenib 0.075 | [9] -0.004 | [10] 0.176 | barasertib 0.092

PGPEP1 (UniProt Q9NXJ5)
inactive: IRAK-1-4 Inhibitor I -0.106 | ibrutinib -0.097 | [1] -0.211 | ralimetinib -0.06 | [2] -0.035 | [11] -0.271 | [3] -0.004 | pinometostat 0.14 | [5] 0.039 | [6] -0.132 | [7] 0.087 | [8] -0.014 | Nexturastat A 0.163 | vemurafenib -0.314 | [9] 0.146 | [10] 0.051 | givinostat -0.03 | barasertib 0.098

PIAS4 (UniProt Q8N2W9)
active: [2] -0.781
inactive: IRAK-1-4 Inhibitor I -0.111 | ralimetinib -0.005 | [3] 0.035 | pinometostat 0.037 | [4] -0.275 | [6] -0.137 | [7] -0.101 | [8] 0.222 | Nexturastat A 0.353 | [9] 0.07 | [10] 1.31

PHF19 isoform 2 (UniProt Q5T6S3)
inactive: IRAK-1-4 Inhibitor I 0.184 | ibrutinib 0.138 | ralimetinib 0.018 | [2] -0.092 | [11] -0.044 | [3] 0.16 | pinometostat 0.01 | [12] 0.057 | [4] 0.111 | [5] -0.015 | [6] -0.084 | [7] 0.003 | [8] -0.134 | Nexturastat A 0.031 | vemurafenib 0.002 | [9] 0.101 | [10] -0.151 | givinostat -0.013 | barasertib -0.046

PLCL1 (UniProt Q15111)
inactive: IRAK-1-4 Inhibitor I -0.007 | ibrutinib 0.31 | [1] 0.08 | ralimetinib 0.125 | [2] -0.329 | [11] -0.102 | [3] 0.089 | pinometostat 0.365 | [4] -0.193 | [5] 0.056 | [6] -0.061 | [8] 0.03 | Nexturastat A 0.253 | vemurafenib 0.068 | [10] 0.159 | givinostat 0.21 | barasertib 0.205

PGK2 (UniProt P07205)
inactive: IRAK-1-4 Inhibitor I 0.039 | ibrutinib -0.003 | [1] 0.004 | ralimetinib -0.07 | [2] 0.008 | [3] 0.063 | pinometostat -0.032 | [4] -0.037 | [5] 0.019 | [6] 0.058 | [7] -0.075 | [8] 0.05 | Nexturastat A 0.039 | vemurafenib -0.084 | [9] -0.051 | [10] -0.006 | barasertib -0.046

PEX26 (UniProt Q7Z412)
inactive: IRAK-1-4 Inhibitor I -0.062 | [1] -0.08 | ralimetinib -0.099 | [2] -0.383 | [11] 0.057 | [3] 0.165 | pinometostat 0.08 | [12] 0.021 | [4] 0.164 | [6] 0.035 | [7] 0.068 | [8] -0.042 | Nexturastat A 0 | vemurafenib -0.164 | [9] -0.011 | [10] -0.087 | givinostat 0.013

PHC2 isoform 5 (UniProt Q8IXK0)
inactive: IRAK-1-4 Inhibitor I -0.028 | ibrutinib -0.05 | ralimetinib -0.029 | [2] 0.12 | [3] 0.075 | pinometostat 0.1 | [5] 0.046 | [6] 0.133 | [8] -0.013 | Nexturastat A 0.052 | vemurafenib 0.155 | [10] -0.116 | barasertib -0.517

Copied from the results shown (two entries):
PLCL1 (UniProt Q15111)
inactive: IRAK-1-4 Inhibitor I -0.007 | ibrutinib 0.31 | [1] 0.08 | ralimetinib 0.125 | [2] -0.329 | [11] -0.102 | [3] 0.089 | pinometostat 0.365 | [4] -0.193 | [5] 0.056 | [6] -0.061 | [8] 0.03 | Nexturastat A 0.253 | vemurafenib 0.068 | [10] 0.159 | givinostat 0.21 | barasertib 0.205

PGK2 (UniProt P07205)
inactive: IRAK-1-4 Inhibitor I 0.039 | ibrutinib -0.003 | [1] 0.004 | ralimetinib -0.07 | [2] 0.008 | [3] 0.063 | pinometostat -0.032 | [4] -0.037 | [5] 0.019 | [6] 0.058 | [7] -0.075 | [8] 0.05 | Nexturastat A 0.039 | vemurafenib -0.084 | [9] -0.051 | [10] -0.006 | barasertib -0.046

The listing continues.

PIK3C2A (UniProt O00443)
inactive: IRAK-1-4 Inhibitor I -0.103 | ralimetinib 0.167 | [2] 0 | [11] 0.112 | [3] 0.281 | pinometostat -0.1 | [12] -0.056 | [5] -0.003 | [6] 0.085 | [8] 0.097 | Nexturastat A 0.616 | [10] -0.296 | givinostat -0.078

PIK3CD (UniProt O00329)
inactive: IRAK-1-4 Inhibitor I 0.005 | ibrutinib -0.137 | [1] 0.237 | ralimetinib 0.032 | [2] -0.391 | [11] 0.104 | [3] 0.116 | pinometostat -0.024 | [4] 0.259 | [5] 0.042 | [6] 0.079 | [7] 0.018 | [8] -0.04 | Nexturastat A -0.1 | vemurafenib -0.051 | [9] -0.156 | givinostat -0.013 | barasertib 0.096

PIGN (UniProt O95427)
inactive: IRAK-1-4 Inhibitor I -0.033 | ibrutinib 0.057 | [1] 0.043 | ralimetinib -0.023 | [2] -0.076 | [3] 0.017 | pinometostat 0.006 | [12] -0.151 | [4] -0.133 | [5] 0.09 | [6] -0.043 | [7] -0.004 | [8] -0.117 | Nexturastat A -0.01 | [9] 0.097 | [10] -0.155 | barasertib -0.043
